The list shows a part of the results. Further columns of the screen follow, without active or inactive calls. Most of these compounds were active or inconclusive in the main read-out, so they are no random draw. Potencies come from curve fits of mixed quality, noted in brackets.
Assay: Cell signaling CRE-BLA (Fsk stim)
Conditions: CHO CRE-bla reporter (cAMP response element driving beta-lactamase), forskolin EC10, beta-lactamase ratio; measured here: 460 nm blue channel
Method in brief: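 qHTS titration format; CRE-bla CHO reporter; stimulus EC10 NKH 477, a water-soluble forskolin. Read: CCF4 460/530 nm ratio. Potency expressed as AC50 for activators or inhibitors.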

Row | Structure (SMILES) | AC50
1 | Cc1ccc(-c2csc3nnc(SCC(=O)Nc4cccc(C)n4)n23)cc1 | 10 µM [rising, partial curve, poor fit]
2 | O=c1c2ccccc2oc2ncccc12 | 1 µM [rising, single point]
3 | CC(C)Cn1c(N)c(S(=O)(=O)c2cccs2)c2nc3ccccc3nc21 | 12.6 µM [rising, partial curve]
4 | COc1ccc(OC)c(-n2cnnn2)c1 | 1.58 µM [rising, partial curve]
5 | O=C(COC(=O)C1CCCN1C(=O)c1cccs1)Nc1ccc2c(c1)OCO2 (centres undefined) | 5.01 µM [falling, partial curve]
6 | CCC1C(=O)N=C(SCC(=O)Nc2ccc(C(=O)OC)cc2)NC1=O (centres undefined) | 0.0501 µM [falling, full curve, poor fit]
7 | Cn1nnnc1Sc1nc(-c2cccnc2)nc2ccccc12 | 3.98 µM [falling, partial curve]
8 | CC(=O)NCc1ccc(-c2csc(N)n2)s1 | 3.98 µM [falling, partial curve]
9 | c1nc(NCCN2CCOCC2)c2c3c(sc2n1)CCCCC3 | 12.6 µM [rising, single point]
10 | c1ccc2c(c1)OCC(c1nn3cnnc3s1)O2 (centres undefined) | 5.01 µM [rising, single point]
11 | COC(=O)C1=C(N)Oc2cc(C)n(Cc3cccnc3)c(=O)c2C1c1ccc(OC)c(OC)c1 (centres undefined) | 25.1 µM [rising, single point]
12 | COc1cccc(-c2nc(NCc3cccnc3)c3ccccc3n2)c1 | 10 µM [rising, partial curve]
13 | Cc1cc(C)n2cc(CSc3nnnn3-c3ccccc3)nc2n1 | 25.1 µM [rising, single point]
14 | COc1ccc(S(=O)(=O)Nc2ccc(Cl)cn2)c(C)c1C | 0.0794 µM [falling, partial curve, poor fit]
15 | Cc1cc(C)c(C)c(S(=O)(=O)NCc2ccco2)c1C | 0.0501 µM [falling, full curve]
16 | CCOC(=O)N1CCN(C(=O)c2ccc(-n3c(=S)[nH]c4ccccc4c3=O)cc2)CC1 | 0.631 µM [falling, partial curve]
17 | COc1ccccc1-c1cc(C(F)(F)F)nc(S(=O)(=O)CCCC(=O)N2CCOCC2)n1 | 10 µM [falling, partial curve]
18 | CN(C)c1ncc2nc(-c3ccccc3)c(=O)n(-c3ccccc3)c2n1 | 12.6 µM [rising, partial curve]
19 | COc1cc(Br)cc2cc(C(=O)N3CCCCC3C)c(=O)oc12 (centres undefined) | 0.00316 µM [falling, full curve, poor fit]
20 | COc1ccc(-n2c(=O)c(-c3cccc(Cl)c3)nc3cncnc32)cc1 | 5.01 µM [rising, partial curve]
21 | CC(CCl)OC(C)CCl (centres undefined) | 1 µM [falling, full curve, poor fit]
22 | COc1ccccc1-c1nn2c(C3COc4ccccc4O3)nnc2s1 (centres undefined) | 25.1 µM [rising, single point]

Row | Structure (SMILES) | AC50
23 | CCOC(=O)c1[nH]c(C)c(C(=O)N2CCN(C(=O)c3ccco3)CC2)c1C | 10 µM [rising, partial curve, poor fit]
24 | COc1cccc(-c2cn3nc(C)c(C)nc3n2)c1 | 15.8 µM [rising, partial curve]
25 | COc1cccc(-c2cc(C(=O)Nc3cccc(O)c3)no2)c1 | 0.0316 µM [rising, full curve]
26 | COc1cc(OC)cc(-c2nc(-c3ccccc3)no2)c1 | 5.01 µM [falling, single point]
27 | CN1CCN(c2nc3c(c(=O)n(C)c(=O)n3C)n2CCSc2nc3ccccc3s2)CC1 | 6.31 µM [rising, partial curve]
28 | COc1cc2c(cc1OC)C(C)N(C(=O)C1COc3ccccc3O1)CC2 (centres undefined) | 15.8 µM [rising, partial curve]
29 | CCn1cc(C(=O)NCc2ccc3c(c2)OCO3)c2cc(OC)c(OC)cc2c1=O | 3.98 µM [rising, partial curve]
30 | CCOC(=O)N1CCN(C(=O)c2ccc3c(=O)n(CCc4ccccc4)c(=S)[nH]c3c2)CC1 | 12.6 µM [rising, single point]
31 | O=C(C1CCCN(c2ncccn2)C1)N1CCc2ccccc21 (centres undefined) | 2 µM [rising, partial curve]
32 | CCN(CC)C(=O)c1csc(Nc2ccc(C)cc2)n1 | 5.01 µM [falling, single point]
33 | COc1cc(NC(=O)COc2ccc(F)cc2)nc(OC)n1 | 0.0501 µM [rising, partial curve, poor fit]
34 | COc1ncc2nc(-c3ccc(F)cc3)c(=O)n(CCC#N)c2n1 | 10 µM [rising, partial curve]
35 | Cc1nc2nc(SCC(=O)C(C)(C)C)[nH]c2cc1Br | 1 µM [rising, partial curve]
36 | CCOc1ccc(CCNC(=O)c2oc3c(c2C)-c2[nH]ncc2CC3)cc1OCC | 2 µM [rising, full curve]
37 | COc1ccccc1N1CCN(c2ccc(-c3ccccc3)nn2)CC1 | 5.01 µM [rising, full curve]
38 | O=C(CN1c2cccc3cccc(c23)S1(=O)=O)NCc1ccc2c(c1)OCO2 | 0.2 µM [rising, partial curve]
39 | CC/C(=C(\c1ccccc1)c1ccc(OCCN(C)C)cc1)c1ccc(O)cc1 | 15.8 µM [falling, partial curve, poor fit]
40 | CCOC(=O)C(NC(=O)c1ccc(OC)cc1)(OCC1(CC)COC1)C(F)(F)F (centres undefined) | 10 µM [falling, partial curve, poor fit]
41 | CCC(=O)N/C(=N/c1nc(C)cc(C)n1)Nc1cccc(OC)c1 | 12.6 µM [rising, single point]
42 | CN1CCN(S(=O)(=O)c2ccc(NC(=O)c3ccc(Br)s3)cc2)CC1 | 10 µM [rising, single point]
43 | CCN(CC(=O)Nc1ccccc1C(=O)OC)S(=O)(=O)c1ccccc1 | 10 µM [rising, single point]
44 | O=c1oc(-c2cccc(S(=O)(=O)N3CCOCC3)c2)nc2ccccc12 | 0.1 µM [falling, full curve]

A draw from above in order of count of non-hydrogen atoms, low to high.
Row | Structure (SMILES) | AC50
14 | COc1ccc(S(=O)(=O)Nc2ccc(Cl)cn2)c(C)c1C | 0.0794 µM [falling, partial curve, poor fit]
43 | CCN(CC(=O)Nc1ccccc1C(=O)OC)S(=O)(=O)c1ccccc1 | 10 µM [rising, single point]
38 | O=C(CN1c2cccc3cccc(c23)S1(=O)=O)NCc1ccc2c(c1)OCO2 | 0.2 µM [rising, partial curve]

— PubChem BioAssay AID662 (National Center for Advancing Translational Sciences (NCATS), 2007)
